Some of the results follow. Single values are uncertain, as repeats are few or missing.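 Cells were imaged in 1,536-well plates, and nuclei stained with an antibody against cleaved PARP were counted against all DNA-stained nuclei to give the apoptosis fraction. Screening doses were chosen to leave most cells alive, and resting and induced cleaved-PARP levels differ strongly between cell lines.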

Common to all, as to experiment: cleaved PARP positive nuclei fraction relative to DMSO control; melanoma cells; higher = more apoptosis
Common to all, as to conditions: library dose: low library concentration; 72 h

Assay [1] concerns 501Mel.
In assay [2] the test system is A101D.
Assay [3] has as its system A2058.
Assay [4] relates to C32.
Assay [5] concerns CBRC008 (line from a melanoma biopsy).
Assay [6] relates to CBRC014 (line from a melanoma biopsy).
For assay [7], the system named is CBRC016 (line from a melanoma biopsy).
In assay [8] the test system is CBRC017 (line from a melanoma biopsy).
Assay [9] relates to COLO792.
The test system of assay [10] is COLO800.
The test system of assay [11] is COLO829.
For assay [12], the system named is G361.
Assay [13] has as its system IPC-298.
Assay [14] relates to IST-MEL1.
Assay [15] concerns LB2518-MEL.
In assay [16] the test system is LOXIMVI.

On to `Cc1cc(Nc2cc(N3CCN(C)CC3)nc(/C=C/c3ccccc3)n2)n[nH]1` + COC(=O)c1sccc1S(=O)(=O)Nc1ccc(Nc2ccccc2)cc1OC [GSK0660] (first compound 0.04 µM, partner dose 1 µM), for which the “cleaved PARP positive nuclei fraction” value in assay [1] was 135%; in assay [2], 13.5%; in assay [3], 45.6%; in assay [4], 42.6%; in assay [5], 119%; in assay [6] it was 120%. The “cleaved PARP positive nuclei fraction” value turned out to be 68.8% in [7]; 99.5% in [8]; 94% in [9]; 70% in assay [10]; 36.7% in [11]; 344% in [12]. Also, the “cleaved PARP positive nuclei fraction” value in assay [13] stood at 64.5%; in assay [14], 84.7%; in assay [15] it was 19.4%; in assay [16], 111%.
On to `CN1CCN(c2ccc3nc(-c4c(N)c5c(F)cccc5[nH]c4=O)[nH]c3c2)CC1` [Dovitinib] + COc1cc(N2CCC(N3CCN(C)CC3)CC2)ccc1Nc1ncc(Cl)c(Nc2ccccc2S(=O)(=O)C(C)C)n1 [NVP-TAE684] (first compound 0.1 µM, partner dose 0.08 µM), for which the “cleaved PARP positive nuclei fraction” value in assay [1] came to 81.3%; in assay [2], 53.2%; in [3] it was 95.7%; in assay [4], 79%; in [5] it was 137%; in [6], 92.5%. For the same compound, the “cleaved PARP positive nuclei fraction” value in [7] was determined as 35.2%; in assay [8] it was 95.2%; in assay [9] it was 71.9%; in assay [10], 91.9%; in [11], 94.4%; in assay [12], 192%. Besides, the “cleaved PARP positive nuclei fraction” value in [13] was found to be 47.7%; in assay [14], 254%; in [15], 161%; in [16], 83.3%.
As to `CCCS(=O)(=O)Nc1ccc(F)c(C(=O)c2c[nH]c3ncc(Cl)cc23)c1F` + Oc1nc(-c2ccc(C(F)(F)F)cc2)nc2c1CSCC2 [XAV939] (first compound 0.08 µM, partner dose 2 µM), the “cleaved PARP positive nuclei fraction” value came to 69.9% in assay [1]; 14.5% in [2]; 65.6% in [3]; 169% in assay [4]; 108% in assay [5]; 112% in [6]. Besides, the “cleaved PARP positive nuclei fraction” value in [7] was 20.4%; in assay [8], 75%; in assay [9], 138%; in [10], 39.7%; in [11] it was 38.1%; in assay [12] it was 83.2%. Besides, the “cleaved PARP positive nuclei fraction” value in [13] turned out to be 99.8%; in assay [14], 249%; in assay [15], 64.3%; in assay [16], 306%.
Turning to `CCCS(=O)(=O)Nc1ccc(F)c(C(=O)c2c[nH]c3ncc(Cl)cc23)c1F` + CCCCCCCCCCCC1=C(O)C(=O)C=C(O)C1=O [Embelin] (first compound 0.08 µM, partner dose 1.2 µM), the “cleaved PARP positive nuclei fraction” value in assay [1] is 177%; in assay [2], 65.8%; in [3], 32.4%; in [4], 92.2%; in assay [5], 41.2%; in assay [6], 57.4%. The “cleaved PARP positive nuclei fraction” value in [7] worked out at 80.9%; in assay [8] it was 65.9%; in assay [9], 55%; in assay [10] it was 92.4%; in assay [11], 39.2%; in assay [12] it was 120%. The “cleaved PARP positive nuclei fraction” value was found to be 54.3% in [13], 130% in assay [14], 81% in [15] and 396% in assay [16].
Consider `Nc1ccn([C@@H]2O[C@H](CO)[C@@H](O)C2(F)F)c(=O)n1` [gemcitabine] + O=C1NC(=O)/C(=C/c2ccc(-c3ccc(F)cc3O)o2)S1 [AS252424] (first compound 0.0004 µM, partner dose 1 µM), for which the “cleaved PARP positive nuclei fraction” value in assay [1] was 76.8%; in assay [2], 23.3%; in assay [3], 59.1%; in assay [4] it was 146%; in assay [5], 81.6%; in assay [6], 124%. For the same compound, the “cleaved PARP positive nuclei fraction” value in assay [7] worked out at 226%; in [8], 133%; in assay [9], 99.7%; in assay [10] it was 73.5%; in assay [11], 63%; in assay [12], 151%. Moreover, the “cleaved PARP positive nuclei fraction” value in assay [13] was 108%; in assay [14], 292%; in [15] it was 52.3%; in [16] it was 72%.
Turning to `O=C(O)c1ccc2c(c1)nc(Nc1cccc(Cl)c1)c1ccncc12` + COc1ccc(COc2ccc(Cc3cnc(N)nc3N)cc2OC)cc1 [GW2580] (first compound 0.4 µM, partner dose 1 µM), the “cleaved PARP positive nuclei fraction” value in [1] was found to be 140%; in assay [2], 34.4%; in assay [3], 149%; in assay [4] it was 83%; in assay [5], 122%; in assay [6], 180%. In addition, the “cleaved PARP positive nuclei fraction” value in assay [7] is 175%; in assay [8], 200%; in assay [9], 162%; in [10] it was 77.2%; in assay [11], 98.5%; in [12], 105%. In addition, the “cleaved PARP positive nuclei fraction” value was 81.3% in assay [13], 64% in [14], 94.2% in assay [15] and 323% in assay [16].
For `O=C(O)[C@@H]1[O][Sb](=[O])([O][Sb]2(=[O])[O][C@H]([C@H](O)CO)[C@H](O)[C@H](C(=O)O)[O]2)[O][C@H]([C@H](O)CO)[C@@H]1O` (stereo partly drawn) [stibogluconate] + O=C(Nc1ccccc1)c1cc([N+](=O)[O-])ccc1Cl [GW9662] (first compound 2 µM, partner dose 2 µM), the “cleaved PARP positive nuclei fraction” value came out at 72.1% in assay [1]; 2600% in assay [2]; 80.2% in assay [3]; 81.8% in assay [4]; 150% in assay [5]; 95.9% in [6]. Besides, the “cleaved PARP positive nuclei fraction” value in assay [7] was found to be 47.2%; in assay [8], 95.1%; in assay [9], 59.1%; in [10], 69.7%; in assay [11] it was 124%; in assay [12] it was 72.5%. Moreover, the “cleaved PARP positive nuclei fraction” value came to 84.9% in assay [13], 27.9% in [14], 68.7% in assay [15] and 128% in assay [16].
`Nc1ccn([C@@H]2O[C@H](CO)[C@@H](O)C2(F)F)c(=O)n1` [gemcitabine] + Oc1nc(-c2ccc(C(F)(F)F)cc2)nc2c1CSCC2 [XAV939] (first compound 0.0004 µM, partner dose 2 µM): the “cleaved PARP positive nuclei fraction” value stood at 125% in assay [1]; 43.2% in [2]; 101% in [3]; 75.4% in assay [4]; 110% in assay [5]; 346% in [6]. Also, the “cleaved PARP positive nuclei fraction” value was 89.4% in [7]; 197% in assay [8]; 169% in [9]; 153% in [10]; 62% in assay [11]; 156% in [12]. In addition, the “cleaved PARP positive nuclei fraction” value in [13] amounted to 192%; in assay [14], 86.6%; in [15], 74.2%; in [16], 61.7%.

The record behind these values is the supplement of paper PMC4604168 (melanoma cell lines).
